# Laboratory results taken from PMC9376731.
# Results are given in words; binding and its absence hold for the method and conditions named. In cells and extracts the contact can be indirect. Some results given as binding are weak or reduced against the parent protein; the word gives no strength.
# B1: ZP3 (protein, UniProt P10761 23-351)
# chain: QTLWLLPGGTPTPVGSSSPVKVECLEAELVVTVSRDLFGTGKLVQPGDLTLGSEGCQPRVSVDTDVVRFNAQLHECSSRVQMTKDALVYSTFLLHDPRPVSGLSILRTNRVEVPIECRYPRQGNVSSHPIQPTWVPFRATVSSEEKLAFSLRLMEENWNTEKSAPTFHLGEVAHLQAEVQTGSHLPLQLFVDHCVATPSPLPDPNSSPYHFIVDFHGCLVDGLSESFSAFQVPRPRPETLQFTVDVFHFANSSRNTLYITCHLKVAPANQIPDKLNKACSFNKTSQSWLPVEGDADICDCCSHGNCSNSSSSQFQIHGPRQWSKLVSRN
# Molecular target: T1, fidgetin (mouse (endogenous in mouse oocytes)) (UniProt Q9ERZ6)
# T1 sequence: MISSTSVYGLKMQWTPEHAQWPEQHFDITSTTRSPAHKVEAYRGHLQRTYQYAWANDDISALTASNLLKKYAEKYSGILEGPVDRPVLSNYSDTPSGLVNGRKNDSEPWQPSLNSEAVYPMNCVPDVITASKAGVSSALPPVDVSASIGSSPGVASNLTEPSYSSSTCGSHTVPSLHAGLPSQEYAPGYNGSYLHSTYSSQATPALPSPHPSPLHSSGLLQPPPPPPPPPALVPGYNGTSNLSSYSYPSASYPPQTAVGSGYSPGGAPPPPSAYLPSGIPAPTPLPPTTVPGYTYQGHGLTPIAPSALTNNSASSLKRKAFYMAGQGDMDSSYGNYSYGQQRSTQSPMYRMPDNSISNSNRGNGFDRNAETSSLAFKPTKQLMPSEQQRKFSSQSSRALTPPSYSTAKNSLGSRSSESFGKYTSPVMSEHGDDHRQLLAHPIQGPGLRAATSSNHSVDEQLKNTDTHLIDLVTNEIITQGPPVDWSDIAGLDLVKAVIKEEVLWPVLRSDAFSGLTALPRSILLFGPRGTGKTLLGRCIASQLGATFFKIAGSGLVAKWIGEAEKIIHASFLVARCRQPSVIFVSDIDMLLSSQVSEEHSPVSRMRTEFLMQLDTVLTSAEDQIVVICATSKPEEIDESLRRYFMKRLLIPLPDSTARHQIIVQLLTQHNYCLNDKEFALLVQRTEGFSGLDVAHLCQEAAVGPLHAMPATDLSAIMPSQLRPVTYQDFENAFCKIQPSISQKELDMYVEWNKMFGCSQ
# Assay: co-IP; co-immunoprecipitation with anti-ZP3 and anti-fidgetin antibodies in mouse oocyte lysate; IP buffer 20 mmol/L Tris-HCl pH 8.0, 150 mmol/L NaCl, 0.05% Triton X-100, 0.05% Nonidet P-40, overnight at 4 °C
binder,measurement,value
B1,binding,binds
